# Drug screen on melanoma cell lines: apoptosis marker

Data from the primary screen of doi:10.1371/journal.pone.0140310, rounded.

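Human melanoma cells were exposed to two drugs together for 72 h in 1,536-well plates and read by automated microscopy after fixing and staining. Values are the share of nuclei positive for cleaved PARP as a percentage of the same share in the DMSO control: 100 is the control level, higher means more apoptosis. Concentrations were fixed for each drug; these are the higher of two levels. No replicate spread is given; individual values may be noisy. The marker varies much from line to line, for technical or biological reasons.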 This is part of the screen, not chosen by result. An entry leaves out what has no value listed here.

Drugs:
embelin: CCCCCCCCCCCC1=C(O)C(=O)C=C(O)C1=O at 6000 nM
vismodegib: CS(=O)(=O)c1ccc(C(=O)Nc2ccc(Cl)c(-c3ccccn3)c2)c(Cl)c1 at 5000 nM
CP-690550: C[C@@H]1CCN(C(=O)CC#N)C[C@@H]1N(C)c1ncnc2[nH]ccc12 at 5000 nM
ABT-263: CC1(C)CCC(c2ccc(Cl)cc2)=C(CN2CCN(c3ccc(C(=O)NS(=O)(=O)c4ccc(N[C@H](CCN5CCOCC5)CSc5ccccc5)c(S(=O)(=O)C(F)(F)F)c4)cc3)CC2)C1 at 2000 nM
crizotinib: C[C@@H](Oc1cc(-c2cnn(C3CCNCC3)c2)cnc1N)c1c(Cl)ccc(F)c1Cl at 1000 nM
JZL184: O=C(Oc1ccc([N+](=O)[O-])cc1)N1CCC(C(O)(c2ccc3c(c2)OCO3)c2ccc3c(c2)OCO3)CC1 at 5000 nM
indole-3-carbinol: OCc1c[nH]c2ccccc12 at 4000 nM
decitabine: Nc1ncn([C@H]2C[C@H](O)[C@@H](CO)O2)c(=O)n1 at 500 nM
CX-4945: O=C(O)c1ccc2c(c1)nc(Nc1cccc(Cl)c1)c1ccncc12 at 2000 nM
vatalanib: Clc1ccc(Nc2nnc(Cc3ccncc3)c3ccccc23)cc1 at 10000 nM
docetaxel: CC(=O)O[C@@]12CO[C@@H]1C[C@H](O)[C@@]1(C)C(=O)[C@H](O)C3=C(C)[C@@H](OC(=O)[C@H](O)[C@@H](NC(=O)OC(C)(C)C)c4ccccc4)C[C@@](O)([C@@H](OC(=O)c4ccccc4)[C@H]21)C3(C)C at 0.5 nM
LFM-A13: C/C(O)=C(\C#N)C(=O)Nc1cc(Br)ccc1Br at 10000 nM
temozolomide: Cn1nnc2c(C(N)=O)ncn2c1=O at 10000 nM

With crizotinib + ABT-263 the screen read WM1745: 3740; RPMI-7951: 208; WM1716: 1300; A101D: 156; C32: 702; IPC-298: 121; SK-MEL-2: 358; WM115: 1090.
With CP-690550 + crizotinib the screen read WM1745: 77.8; RPMI-7951: 102; WM1716: 15.3; A101D: 104; C32: 120; IPC-298: 56.5; SK-MEL-2: 56.8; WM115: 26.8.
With vismodegib + CX-4945 the screen read WM1745: 96.9; RPMI-7951: 129; WM1716: 68.7; A101D: 149; C32: 48.7; IPC-298: 209; SK-MEL-2: 214; WM115: 254.
With ABT-263 + vatalanib the screen read WM1745: 3270; RPMI-7951: 334; WM1716: 3630; A101D: 283; C32: 86.5; IPC-298: 360; SK-MEL-2: 126; WM115: 1170.
With indole-3-carbinol + decitabine the screen read WM1745: 95.7; RPMI-7951: 191; WM1716: 63.2; A101D: 37.8; C32: 58.5; IPC-298: 144; SK-MEL-2: 159; WM115: 75.1.
With docetaxel + embelin the screen read RPMI-7951: 749; WM1716: 560; A101D: 140; C32: 224; IPC-298: 111; SK-MEL-2: 1590; WM115: 259.
With LFM-A13 + CP-690550 the screen read WM1745: 105; RPMI-7951: 28.9; WM1716: 27.3; A101D: 49.9; C32: 82.0; IPC-298: 195; SK-MEL-2: 107; WM115: 39.2.
With vatalanib + LFM-A13 the screen read RPMI-7951: 150; WM1716: 81.7; A101D: 36.8; C32: 89.9; IPC-298: 119; SK-MEL-2: 55.1; WM115: 197.
With CP-690550 + docetaxel the screen read WM1745: 139; RPMI-7951: 534; WM1716: 817; A101D: 86.8; C32: 213; IPC-298: 302; SK-MEL-2: 1170; WM115: 644.
With temozolomide + indole-3-carbinol the screen read WM1745: 118; RPMI-7951: 94.3; WM1716: 860; A101D: 107; C32: 55.7; IPC-298: 291; SK-MEL-2: 86.0; WM115: 206.
With vismodegib + docetaxel the screen read WM1745: 363; RPMI-7951: 562; WM1716: 1200; A101D: 140; C32: 416; IPC-298: 1140; SK-MEL-2: 1060; WM115: 1070.
With ABT-263 + temozolomide the screen read WM1745: 2520; RPMI-7951: 117; WM1716: 4350; A101D: 267; C32: 1060; IPC-298: 190; SK-MEL-2: 149; WM115: 615.
With docetaxel + crizotinib the screen read WM1745: 207; RPMI-7951: 157; WM1716: 663; A101D: 104; C32: 365; IPC-298: 323; SK-MEL-2: 992; WM115: 703.
With vatalanib + CP-690550 the screen read WM1745: 140; RPMI-7951: 211; WM1716: 170; A101D: 30.1; C32: 167; IPC-298: 288; SK-MEL-2: 173; WM115: 85.1.
With CX-4945 + embelin the screen read RPMI-7951: 72.2; WM1716: 297; A101D: 42.8; C32: 70.1; IPC-298: 144; SK-MEL-2: 224; WM115: 95.1.
With vatalanib + docetaxel the screen read WM1745: 421; RPMI-7951: 452; WM1716: 392; A101D: 380; C32: 187; IPC-298: 1170; SK-MEL-2: 1160; WM115: 1220.
With indole-3-carbinol + embelin the screen read RPMI-7951: 53.8; WM1716: 124; A101D: 36.3; C32: 91.2; IPC-298: 263; SK-MEL-2: 138; WM115: 60.1.
With CP-690550 + CX-4945 the screen read WM1745: 102; RPMI-7951: 137; WM1716: 125; A101D: 304; C32: 72.3; IPC-298: 140; SK-MEL-2: 230; WM115: 53.4.
With JZL184 + decitabine the screen read RPMI-7951: 56.2; WM1716: 111; A101D: 99.3; C32: 85.9; IPC-298: 117; SK-MEL-2: 56.9; WM115: 145.
With temozolomide + vatalanib the screen read WM1745: 153; RPMI-7951: 159; WM1716: 702; A101D: 108; C32: 86.4; IPC-298: 59.9; SK-MEL-2: 38.4; WM115: 308.
With CP-690550 + ABT-263 the screen read WM1745: 918; RPMI-7951: 78.8; WM1716: 1280; A101D: 155; C32: 140; IPC-298: 161; SK-MEL-2: 106; WM115: 268.
With CX-4945 + decitabine the screen read WM1745: 132; RPMI-7951: 55.9; WM1716: 178; A101D: 251; C32: 268; IPC-298: 365; SK-MEL-2: 191; WM115: 209.

2 of the entries, repeated:

{"combination": "docetaxel + embelin", "RPMI-7951": 749, "WM1716": 560, "A101D": 140, "C32": 224, "IPC-298": 111, "SK-MEL-2": 1590, "WM115": 259}
{"combination": "ABT-263 + temozolomide", "WM1745": 2520, "RPMI-7951": 117, "WM1716": 4350, "A101D": 267, "C32": 1060, "IPC-298": 190, "SK-MEL-2": 149, "WM115": 615}